Measurements as given in patent US20260158102A1, “CYCLIC PEPTIDE DERIVATIVE COMPOSITION FOR TREATING OR PREVENTING NEUROPATHIC PAIN AND/OR INFLAMMATORY PAIN” (DKS Co. Ltd., priority 2022, published 2026).
This continues a long series; more values of the same kind are listed elsewhere.

Tests used:
[1] = Observation of general condition in rat STZ-induced diabetes model; format: in vivo; details: 1 mg/kg iv, number of animals, 10 per group
Experimental: (§1) Compound 9 (50 mg/mL) was diluted with water for injection to obtain a 1 mg/mL administration specimen. For the specimens to be administered at 0.1 mg/mL and 0.01 mg/mL, the specimen to be administered at 1 mg/mL was diluted stepwise with water for injection. Each administration specimen was divided into PP disposable tubes every day and stored in a storehouse (freezer: MDF-MU339H-PJ, PHC Corporation) under the condition of freezing (−30° C. to −20° C., measured value: −26.4 to −24.5° C.). Preparation was performed on the day before the start of administration.
(§2) Water for injection was added to and dissolved in Pregabalin taken out from the capsule to obtain 2 mg/mL. It was prepared before use.
(§3) • Animal species: rat (SPF) • Strain: Crl: CD (SD) • Date of animal acquisition, gender, age in weeks, number of animals acquired, and weight range after 1 day of acquisition • First and second courses: Apr. 6, 2022, male, 7 weeks old, 35 animals, 217 to 237 g • Third and fourth courses: Apr. 13, 2022, male, 7 weeks old, 35 animals, 216 to 235 g • Source: […].
(§4) • Dose volume: calculated at 2 mL/kg based on the body weight on the day of administration. • Number of times of administration: once • Day of administration: 7 days before the day of starting administration of the test substance.
(§5) • Dose volume: calculated at 1 mL/kg based on the body weight on the day of administration. • Number of times of administration: 9 times • Interval of administration: once every 3 days (evaluation was performed on the day after administration) • Day of starting administration: day 8 of STZ administration (day of STZ administration is counted as day 1).
(§6) • Dose volume: calculated at 10 mL/kg based on the body weight on the day of administration. • Number of times of administration: Administration was performed once on the day of evaluation of neuropathic pain, twice in total, and on the other days of administration, a vehicle for a control substance (water for injection) was orally administered.
• Observation of general condition • Observation was performed once a day.

[2] = Body weight measurement in rat STZ-induced diabetes model; format: in vivo; details: mean ± SE, in g (unit assumed)
Experimental: as §1, §2, §3, §4, §5, §6
• Measurement was performed every day after the day of STZ administration.
The mean and standard error of each group were calculated for the 50% withdrawal threshold, body weight, and blood glucose level.
The body weight was an integer.
No significant difference test of body weight and blood glucose levels was performed.

## CC[C@@]1(C)Oc2cc(ccc2O)C[C@H](NC)C(=O)N[C@@H](C(C)C)C(=O)N[C@@H]1C(=O)N[C@@H](CC(=O)O)C(=O)O [Compound 9]
[1]; day 23 of STZ administration
  general condition: 10
[1]; day 24 of STZ administration
  general condition: 10
[1]; day 25 of STZ administration
  general condition: 10
[1]; day 26 of STZ administration
  general condition: 10
[1]; day 27 of STZ administration
  general condition: 10
[2]; 0.01 mg/kg iv, day 35 of STZ administration
  Body weight: 312 ± 11
[2]; 0.1 mg/kg iv, day 34 of STZ administration
  Body weight: 312 ± 9
[2]; 0.1 mg/kg iv, day 35 of STZ administration
  Body weight: 314 ± 9
[2]; 1 mg/kg iv, day 34 of STZ administration
  Body weight: 308 ± 11
[2]; 1 mg/kg iv, day 35 of STZ administration
  Body weight: 310 ± 11
